In paper PMC3167847:
No constants are given. Whether binding was seen depends on the method and setting. Binding seen in cells or lysates may run through a third protein. Some entries that bind do so weakly or less than the wild type.

Protein sequences, listed by entry. Tags and fused reporters are not part of them.
UniProt P15307: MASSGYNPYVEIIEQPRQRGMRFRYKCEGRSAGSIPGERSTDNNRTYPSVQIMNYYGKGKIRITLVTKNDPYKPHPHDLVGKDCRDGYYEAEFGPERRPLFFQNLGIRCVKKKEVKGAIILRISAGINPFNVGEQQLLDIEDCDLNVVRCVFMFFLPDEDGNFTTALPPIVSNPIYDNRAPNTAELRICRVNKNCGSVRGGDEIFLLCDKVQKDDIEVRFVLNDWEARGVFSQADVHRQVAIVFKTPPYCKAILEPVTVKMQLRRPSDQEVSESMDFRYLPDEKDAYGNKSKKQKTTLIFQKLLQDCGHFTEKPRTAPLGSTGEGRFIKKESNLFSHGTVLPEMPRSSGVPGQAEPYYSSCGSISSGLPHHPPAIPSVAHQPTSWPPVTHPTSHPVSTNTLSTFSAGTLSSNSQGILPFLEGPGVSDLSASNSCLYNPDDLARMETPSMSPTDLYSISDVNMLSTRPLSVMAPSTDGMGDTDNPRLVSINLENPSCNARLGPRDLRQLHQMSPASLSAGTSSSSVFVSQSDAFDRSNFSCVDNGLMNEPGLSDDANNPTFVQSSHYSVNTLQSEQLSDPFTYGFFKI

T1: Inhibitor of kappa B beta (IκBβ) (mouse (endogenous in 11A2 T cell hybridoma)) (UniProt Q60778)
T1 sequence: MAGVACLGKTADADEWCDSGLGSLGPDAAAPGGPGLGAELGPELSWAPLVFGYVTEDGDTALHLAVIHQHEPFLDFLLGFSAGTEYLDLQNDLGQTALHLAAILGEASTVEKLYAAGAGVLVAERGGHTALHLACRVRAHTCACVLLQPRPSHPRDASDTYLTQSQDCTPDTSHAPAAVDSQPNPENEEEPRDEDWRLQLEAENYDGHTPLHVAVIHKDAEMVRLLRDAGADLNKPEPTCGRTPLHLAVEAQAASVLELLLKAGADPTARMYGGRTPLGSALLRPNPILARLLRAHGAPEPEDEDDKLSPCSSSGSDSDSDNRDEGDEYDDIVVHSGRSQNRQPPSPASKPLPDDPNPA

T2: Inhibitor of Kappa B Epsilon (IκBε) (mouse (endogenous in 11A2 T cell hybridoma)) (UniProt O54910)
T2 sequence: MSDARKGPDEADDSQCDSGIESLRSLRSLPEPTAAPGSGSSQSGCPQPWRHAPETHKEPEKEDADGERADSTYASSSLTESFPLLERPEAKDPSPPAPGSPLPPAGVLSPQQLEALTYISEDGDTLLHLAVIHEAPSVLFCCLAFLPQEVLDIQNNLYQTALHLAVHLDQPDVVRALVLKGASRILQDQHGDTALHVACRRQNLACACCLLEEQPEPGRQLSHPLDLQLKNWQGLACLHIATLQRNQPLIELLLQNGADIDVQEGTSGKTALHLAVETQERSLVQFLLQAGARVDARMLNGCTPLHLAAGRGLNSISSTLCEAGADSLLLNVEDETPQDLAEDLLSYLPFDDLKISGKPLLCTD

T3: Inhibitor of kappa B alpha (IκBα) (mouse (endogenous in 11A2 T cell hybridoma)), Q9Z1E3
T3 chain: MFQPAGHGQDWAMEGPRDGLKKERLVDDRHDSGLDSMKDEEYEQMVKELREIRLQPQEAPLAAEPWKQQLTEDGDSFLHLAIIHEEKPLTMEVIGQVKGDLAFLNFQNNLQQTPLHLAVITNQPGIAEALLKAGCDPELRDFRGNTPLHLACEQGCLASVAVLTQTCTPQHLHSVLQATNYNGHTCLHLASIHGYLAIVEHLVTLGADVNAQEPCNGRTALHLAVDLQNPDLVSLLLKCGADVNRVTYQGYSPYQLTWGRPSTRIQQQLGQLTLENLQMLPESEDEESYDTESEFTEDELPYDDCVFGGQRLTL

T4: p65 (RelA) (mouse (endogenous in 11A2 T cell hybridoma)), Q04207
T4 chain: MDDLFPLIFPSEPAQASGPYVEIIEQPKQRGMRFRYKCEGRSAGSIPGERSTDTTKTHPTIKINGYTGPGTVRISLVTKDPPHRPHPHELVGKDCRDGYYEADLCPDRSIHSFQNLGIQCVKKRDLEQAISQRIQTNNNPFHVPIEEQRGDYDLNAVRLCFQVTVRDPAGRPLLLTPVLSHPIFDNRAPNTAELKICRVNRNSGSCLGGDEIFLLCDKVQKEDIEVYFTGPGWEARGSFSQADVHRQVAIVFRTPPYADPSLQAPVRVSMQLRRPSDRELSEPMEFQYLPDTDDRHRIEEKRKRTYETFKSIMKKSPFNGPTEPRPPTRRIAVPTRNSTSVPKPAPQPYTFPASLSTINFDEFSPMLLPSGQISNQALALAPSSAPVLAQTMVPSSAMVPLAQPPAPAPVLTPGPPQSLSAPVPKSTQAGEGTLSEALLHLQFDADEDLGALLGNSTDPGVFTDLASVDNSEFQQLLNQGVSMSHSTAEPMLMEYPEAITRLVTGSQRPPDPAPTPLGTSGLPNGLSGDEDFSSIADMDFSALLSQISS


Assays:
[1] = target: p65 (RelA) (mouse (endogenous in 11A2 T cell hybridoma)) (UniProt Q04207); assay: co-IP; p65 immunoprecipitated with agarose-conjugated anti-p65 from 100 µg cytosolic protein of control and TNF-pre-treated 11A2 cells, resting or stimulated with PMA and ionomycin for up to 4 h; immunoblot for associated IκBs and c-Rel
[2] = target: T1, Inhibitor of kappa B beta (IκBβ) (mouse (endogenous in 11A2 T cell hybridoma)); assay: co-IP; IκBα, -β or -ε immunoprecipitated with their antibodies from 100 µg cytosolic protein of control and TNF-pre-treated 11A2 cells, resting or stimulated with PMA and ionomycin for up to 4 h; immunoblot for associated c-Rel and p65
[3] = target: Inhibitor of kappa B alpha (IκBα) (mouse (endogenous in 11A2 T cell hybridoma)) (UniProt Q9Z1E3); assay: as above
[4] = target: T2, Inhibitor of Kappa B Epsilon (IκBε) (mouse (endogenous in 11A2 T cell hybridoma)); assay: as above
[5] = target: T3, Inhibitor of kappa B alpha (IκBα) …; assay: as above; conditions: remark: other sources report otherwise
[6] = target: T4, p65 (RelA) (mouse (endogenous in 11A2 T …)); assay: co-IP; p65 immunoprecipitated with agarose-conjugated anti-p65 from 100 µg cytosolic protein of control and TNF-pre-treated 11A2 cells, resting or stimulated with PMA and ionomycin for up to 4 h; immunoblot for associated IκBs and c-Rel; conditions: remark: other sources report otherwise

Row | binding [1] | binding [2] | binding [3] | binding [4] | binding [5] | binding [6] | Molecule
1 | binds |  |  |  |  |  | Inhibitor of kappa B alpha (IκBα) (from UniProt Q9Z1E3 1-314)
2 | binds | binds | binds | binds |  |  | c-Rel (from UniProt P15307 1-587)
3 |  | no binding |  | no binding |  |  | p50 (from UniProt P25799 1-431)
4 |  | binds | binds | binds |  |  | p65 (RelA) (from UniProt Q04207 1-549)
5 |  |  |  |  | no binding | no binding | p50, P25799 1-431 (protein) MADDDPYGTGQMFHLNTALTHSIFNAELYSPEIPLSTDGPYLQILEQPKQRGFRFRYVCEGPSHGGLPGASSEKNKKSYPQVKICNYVGPAKVIVQLVTNGKNIHLHAHSLVGKHCEDGVCTVTAGPKDMVVGFANLGILHVTKKKVFETLEARMTEACIRGYNPGLLVHSDLAYLQAEGGGDRQLTDREKEIIRQAAVQQTKEMDLSVVRLMFTAFLPDSTGSFTRRLEPVVSDAIYDSKAPNASNLKIVRMDRTAGCVTGGEEIYLLCDKVQKDDIQIRFYEEEENGGVWEGFGDFSPTDVHRQFAIVFKTPKYKDVNITKPASVFVQLRRKSDLETSEPKPFLYYPEIKDKEEVQRKRQKLMPNFSDSFGGGSGAGAGGGGMFGSGGGGGSTGSPGPGYGYSNYGFPPYGGITFHPGVTKSNAGVTHG
6 | binds |  |  |  |  |  | Inhibitor of kappa B beta (IκBβ) (protein, UniProt Q60778 1-359) MAGVACLGKTADADEWCDSGLGSLGPDAAAPGGPGLGAELGPELSWAPLVFGYVTEDGDTALHLAVIHQHEPFLDFLLGFSAGTEYLDLQNDLGQTALHLAAILGEASTVEKLYAAGAGVLVAERGGHTALHLACRVRAHTCACVLLQPRPSHPRDASDTYLTQSQDCTPDTSHAPAAVDSQPNPENEEEPRDEDWRLQLEAENYDGHTPLHVAVIHKDAEMVRLLRDAGADLNKPEPTCGRTPLHLAVEAQAASVLELLLKAGADPTARMYGGRTPLGSALLRPNPILARLLRAHGAPEPEDEDDKLSPCSSSGSDSDSDNRDEGDEYDDIVVHSGRSQNRQPPSPASKPLPDDPNPA
